Binding data for five molecules are collected here from paper PMC11109111.

The target of experiment [1] is T1, GRAIN WEIGHT 6a (GW6a), yeast two-hybrid fusion used for the screen (rice (Oryza sativa)) (UniProt Q67UR2).
T1 sequence: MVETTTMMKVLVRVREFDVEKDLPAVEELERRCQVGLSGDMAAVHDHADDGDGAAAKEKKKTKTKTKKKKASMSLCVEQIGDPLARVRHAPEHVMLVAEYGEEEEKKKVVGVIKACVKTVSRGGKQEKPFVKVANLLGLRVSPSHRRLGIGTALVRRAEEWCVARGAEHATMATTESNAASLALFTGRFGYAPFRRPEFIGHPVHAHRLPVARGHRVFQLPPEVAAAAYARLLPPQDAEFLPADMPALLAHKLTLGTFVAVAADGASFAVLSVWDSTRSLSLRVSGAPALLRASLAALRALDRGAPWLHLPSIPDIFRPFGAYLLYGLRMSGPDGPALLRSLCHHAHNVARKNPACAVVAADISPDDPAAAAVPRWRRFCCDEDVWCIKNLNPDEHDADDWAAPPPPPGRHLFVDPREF
In words: two-hybrid; yeast two-hybrid screen for proteins that interact with GW6a; no methods given.

Experiment [2] deals with T2, GST-GW6a (rice (Oryza sativa)) (UniProt Q67UR2).
T2 sequence: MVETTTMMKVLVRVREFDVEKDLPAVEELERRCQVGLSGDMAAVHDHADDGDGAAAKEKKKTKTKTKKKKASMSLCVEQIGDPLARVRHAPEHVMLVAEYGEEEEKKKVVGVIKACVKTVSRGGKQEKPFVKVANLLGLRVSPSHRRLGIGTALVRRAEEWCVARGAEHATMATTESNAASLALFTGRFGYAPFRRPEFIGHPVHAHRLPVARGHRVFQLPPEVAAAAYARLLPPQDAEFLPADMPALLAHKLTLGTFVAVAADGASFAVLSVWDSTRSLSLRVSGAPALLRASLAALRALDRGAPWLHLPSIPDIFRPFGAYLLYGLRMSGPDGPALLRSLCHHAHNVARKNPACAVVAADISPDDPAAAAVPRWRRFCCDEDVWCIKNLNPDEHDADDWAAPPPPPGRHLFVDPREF
In words: pull-down; GST-tag purification resin incubated with GST or the GST fusion at 4 C for 1 h, then with CLG1-Myc or His-GW6a at 4 C for 1 h; washed with PBS, 0.05% SDS, 1% Triton X-100; immunoblot with anti-GST, anti-Myc or anti-GW6a. For orientation: In western blotting, separated proteins are transferred to a membrane and probed.

The target in experiment [3] is T3, GST-GW6a^S142/T186A (rice (Oryza sativa)) (UniProt Q67UR2).
T3 sequence: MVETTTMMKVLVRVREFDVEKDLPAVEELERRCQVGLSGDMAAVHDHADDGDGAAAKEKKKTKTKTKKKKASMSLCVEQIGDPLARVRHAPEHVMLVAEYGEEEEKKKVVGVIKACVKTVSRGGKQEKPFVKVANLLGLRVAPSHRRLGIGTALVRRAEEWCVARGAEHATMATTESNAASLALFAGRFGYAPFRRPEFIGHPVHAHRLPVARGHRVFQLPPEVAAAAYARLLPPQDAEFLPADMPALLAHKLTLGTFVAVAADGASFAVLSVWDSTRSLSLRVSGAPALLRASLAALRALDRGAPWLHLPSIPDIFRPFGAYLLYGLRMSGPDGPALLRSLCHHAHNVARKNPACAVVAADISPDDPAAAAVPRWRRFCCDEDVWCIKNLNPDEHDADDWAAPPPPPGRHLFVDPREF
The description is as above.

Experiment [4] concerns the target T4, GST-GW6a^S142/T186D (rice (Oryza sativa)) (UniProt Q67UR2).
T4 sequence: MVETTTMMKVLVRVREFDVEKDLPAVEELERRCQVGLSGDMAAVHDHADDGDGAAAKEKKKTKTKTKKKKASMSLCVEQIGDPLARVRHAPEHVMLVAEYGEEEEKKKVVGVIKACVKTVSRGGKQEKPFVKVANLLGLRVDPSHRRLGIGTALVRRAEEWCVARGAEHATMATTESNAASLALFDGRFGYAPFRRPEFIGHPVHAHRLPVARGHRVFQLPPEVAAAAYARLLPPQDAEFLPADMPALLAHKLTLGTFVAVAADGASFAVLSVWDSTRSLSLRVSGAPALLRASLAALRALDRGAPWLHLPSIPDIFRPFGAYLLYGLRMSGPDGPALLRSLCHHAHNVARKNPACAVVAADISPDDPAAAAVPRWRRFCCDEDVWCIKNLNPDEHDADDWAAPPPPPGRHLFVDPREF
The description is as above.

In experiment [5] the target is T5, GW6a-nLUC (rice (Oryza sativa)) (UniProt Q67UR2).
T5 sequence: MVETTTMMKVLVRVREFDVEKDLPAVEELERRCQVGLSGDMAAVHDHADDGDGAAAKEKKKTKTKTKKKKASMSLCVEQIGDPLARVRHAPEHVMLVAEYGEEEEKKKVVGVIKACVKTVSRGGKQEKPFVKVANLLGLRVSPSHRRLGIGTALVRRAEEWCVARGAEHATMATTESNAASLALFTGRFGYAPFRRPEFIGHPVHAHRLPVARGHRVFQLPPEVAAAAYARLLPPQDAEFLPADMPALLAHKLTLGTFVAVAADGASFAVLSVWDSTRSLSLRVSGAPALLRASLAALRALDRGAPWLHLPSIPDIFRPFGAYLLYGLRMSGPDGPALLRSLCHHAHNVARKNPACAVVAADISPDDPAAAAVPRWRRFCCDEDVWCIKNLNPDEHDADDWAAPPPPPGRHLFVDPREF
In words: split reporter; split firefly luciferase complementation in N. benthamiana leaves; GW6a-nLUC with CLG1-cLUC, GW2-cLUC or HDR3-cLUC, with or without a third protein as GFP fusion (GW2-GFP, HDR3-GFP, CLG1-GFP); LUC signal by CCD imaging.

The target of experiment [6] is T6, nYFP-GW6a (rice protoplasts, pSY736) (rice (Oryza sativa)) (UniProt Q67UR2).
T6 sequence: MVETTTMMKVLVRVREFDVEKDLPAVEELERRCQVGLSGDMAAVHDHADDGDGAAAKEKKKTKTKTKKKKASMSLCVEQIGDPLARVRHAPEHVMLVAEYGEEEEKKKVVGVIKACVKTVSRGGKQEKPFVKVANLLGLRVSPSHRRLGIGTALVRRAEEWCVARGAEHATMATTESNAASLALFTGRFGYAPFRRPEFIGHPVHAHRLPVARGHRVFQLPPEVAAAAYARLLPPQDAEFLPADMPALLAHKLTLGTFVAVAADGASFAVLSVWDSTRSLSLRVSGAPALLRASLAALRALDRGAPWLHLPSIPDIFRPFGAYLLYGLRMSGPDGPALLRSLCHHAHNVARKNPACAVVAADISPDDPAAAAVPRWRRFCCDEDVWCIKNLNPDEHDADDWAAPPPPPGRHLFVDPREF
In words: split reporter; BiFC, split YFP, in rice protoplasts incubated overnight; confocal microscopy.

The target in experiment [7] is CLG1-GFP (rice (Oryza sativa)). In words: co-IP; N. benthamiana leaves co-expressing GW6a-Myc and the GFP fusion (or GFP), 72 h; total protein on anti-GFP affinity beads, 4 C, 3 h; immunoblot with anti-GFP and anti-Myc.

These are yes or no findings as the source states them, for the method shown. A result given as binding can be weak or reduced; the word gives no strength. Where a sequence is shown, tags or fusion partners need not be part of it. For some of these results: In cells and extracts the contact can be indirect.

Take “CHANG LI GENG 1 (CLG1), hit of the yeast two-hybrid screen (from UniProt Q6AUD8)”: the binding entry in experiment [1] was “binds”.
For the molecule “CLG1-Myc (E. coli-produced) (rice (Oryza sativa)) (enzyme)”, the binding result was “binds” in experiment [2], “binds weakly” in experiment [3] and “binds” in experiment [4].
Take “CLG1-cLUC (rice (Oryza sativa)) (enzyme)”: the binding entry in experiment [5] is recorded as “binds”.
With “CLG1-cYFP (rice (Oryza sativa)) (enzyme)”, the binding entry in experiment [6] is “binds”.

B1: GW6a-Myc (protein, UniProt Q67UR2 1-419)
chain: MVETTTMMKVLVRVREFDVEKDLPAVEELERRCQVGLSGDMAAVHDHADDGDGAAAKEKKKTKTKTKKKKASMSLCVEQIGDPLARVRHAPEHVMLVAEYGEEEEKKKVVGVIKACVKTVSRGGKQEKPFVKVANLLGLRVSPSHRRLGIGTALVRRAEEWCVARGAEHATMATTESNAASLALFTGRFGYAPFRRPEFIGHPVHAHRLPVARGHRVFQLPPEVAAAAYARLLPPQDAEFLPADMPALLAHKLTLGTFVAVAADGASFAVLSVWDSTRSLSLRVSGAPALLRASLAALRALDRGAPWLHLPSIPDIFRPFGAYLLYGLRMSGPDGPALLRSLCHHAHNVARKNPACAVVAADISPDDPAAAAVPRWRRFCCDEDVWCIKNLNPDEHDADDWAAPPPPPGRHLFVDPREF
Turning to B1, in experiment [7], the binding entry is on record as “binds”.
